# In publication PMC7819943, “Rice protein-binding microarrays: a tool to detect cis-acting elements near promoter regions in rice”:
# Sequences of proteins named here, by UniProt entry; tags and fusion partners are left off.
# UniProt Q0JBA9, entry or part of it: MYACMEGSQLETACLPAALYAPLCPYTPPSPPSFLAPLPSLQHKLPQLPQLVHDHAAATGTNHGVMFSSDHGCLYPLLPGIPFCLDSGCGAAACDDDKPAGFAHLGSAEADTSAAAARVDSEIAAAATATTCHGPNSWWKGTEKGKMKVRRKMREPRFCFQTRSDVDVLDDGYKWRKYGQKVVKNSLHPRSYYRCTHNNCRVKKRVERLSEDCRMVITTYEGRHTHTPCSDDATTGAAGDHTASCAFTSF
# Some of the results follow.
# Biological target: OsWRKY34 (Oryza sativa, UniProt Q0JBA9 1-250)
# Assay: protein-binding microarray (RPBM); PBS, 2% BSA, 51.3 ng/ul salmon testes DNA, 50 uM zinc acetate, 200 nM TF, 25 C, 1 h; high values mean tight binding
# Conditions: protein: recombinant; tags: N-terminal polyhistidine and DsRed monomer fusion (pET32a); label: CyDye5-dUTP incorporated in the synthesized complementary strand; 3' TTTTT single-stranded linker to array surface; dsDNA, one strand shown
# How it was run: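 An Axon 4000B scanner gave the binding signal as per-feature fluorescence intensity in arbitrary units. This followed washing of a custom Agilent array that had been incubated for 1 h at 25 °C with 200 nM protein in PBS, 2% BSA, salmon testes DNA and 50 µM zinc acetate. The proteins were transcription factors fused at the N-terminus to polyhistidine and DsRed, expressed in E. coli BL21-CodonPlus and purified on Ni–NTA.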
row,Sequence,binding signal
1,TTAAGTCAACCTCCACAGATTCCTGCCACTCCATTCTATACGGAGTCACCTAGTGCAG,8600 fluorescence intensity (a.u.)
2,GTGGCCTATTTAGTACGAGTACTTTTCTTCCCAACTTATCCGGAGTCACCTAGTGCAG,8660 fluorescence intensity (a.u.)
3,TTGACACCATTGACTTTTTTAAACATGTTTGACCGTTCGTCGGAGTCACCTAGTGCAG,15100 fluorescence intensity (a.u.)
4,ACACAAACTGTAGCTTTTTGGAGCTTCCACGTATTGTTTTCGGAGTCACCTAGTGCAG,8580 fluorescence intensity (a.u.)
5,CCTACCCCGACCTCTCTCATCCTCGCCCTCACCGTCTCCACGGAGTCACCTAGTGCAG,9970 fluorescence intensity (a.u.)
6,ACTCTGTTACATCCTGAACCGTGGGCCCATCTTATTTAACCGGAGTCACCTAGTGCAG,9020 fluorescence intensity (a.u.)
7,TTTTTTTCTTTCTTCCTTATCCATCCCTCTCTCTCTCTTTCGGAGTCACCTAGTGCAG,8320 fluorescence intensity (a.u.)
8,AGCTAGTATTCCGCTTTCTTGATAAAGCTGTTTCCGATCTCGGAGTCACCTAGTGCAG,8620 fluorescence intensity (a.u.)
9,TTTCCAATCAATACATTGCCAATTTGCCATGCCCCGCGCGCGGAGTCACCTAGTGCAG,10000 fluorescence intensity (a.u.)
10,TCCCACAGCCACAAATTATCATGTCACAATTTCTCCATTTCGGAGTCACCTAGTGCAG,8110 fluorescence intensity (a.u.)
11,TTATATGTGGCTATTTTCTACAACTTGTTAGCCAATTTCTCGGAGTCACCTAGTGCAG,8550 fluorescence intensity (a.u.)
12,CTTGTTACTAATATACTAGTATTTGAGTGTTACACGTTTTCGGAGTCACCTAGTGCAG,8380 fluorescence intensity (a.u.)
13,CATCTCCCAATCCACTACTTCTTGCTGATCATCATATATCCGGAGTCACCTAGTGCAG,10100 fluorescence intensity (a.u.)
14,CTCCTCGGGCTAAAAGTGGTAATACGCGTTTCTCAAGCTTCGGAGTCACCTAGTGCAG,9930 fluorescence intensity (a.u.)
15,AAAATTTTCGTCCTTTTTTGCTGTTAAAATAATTTAATTTCGGAGTCACCTAGTGCAG,9370 fluorescence intensity (a.u.)
16,CTCTCTCTCTCTCTCTCTCTCTCTCTCTCTGATTGTTCTCCGGAGTCACCTAGTGCAG,12500 fluorescence intensity (a.u.)
17,CCTTAAATCTGCTCTCGTACTCGTACGTCCATTTCCCTTGCGGAGTCACCTAGTGCAG,8560 fluorescence intensity (a.u.)
18,CTTCCTTGCCACTACCCACTACTATCCCCACCCGTGTCCCCGGAGTCACCTAGTGCAG,10100 fluorescence intensity (a.u.)
19,GTTTGTGCTTCTCTCTGTGTGTGAATCGAGGAAAGCCTCGCGGAGTCACCTAGTGCAG,8240 fluorescence intensity (a.u.)
20,TCTAAAGGCAGTGCCGCTAGTGATCCCAAGTTCCAAGAGTCGGAGTCACCTAGTGCAG,8710 fluorescence intensity (a.u.)
21,GTTAGGATTTAAAGATGTCTTTTGGTGGGTGGGAAATCATCGGAGTCACCTAGTGCAG,9160 fluorescence intensity (a.u.)

# Looked up one by one from above (2):
row,Sequence,binding signal
12,CTTGTTACTAATATACTAGTATTTGAGTGTTACACGTTTTCGGAGTCACCTAGTGCAG,8380 fluorescence intensity (a.u.)
5,CCTACCCCGACCTCTCTCATCCTCGCCCTCACCGTCTCCACGGAGTCACCTAGTGCAG,9970 fluorescence intensity (a.u.)

# (further entries)

row,Sequence,binding signal
1,CTGTGGTCTAAGCTTACTGACTCGGTTTCCATGTATTTTGCGGAGTCACCTAGTGCAG,8110 fluorescence intensity (a.u.)
2,GCACAACAACATTGCGTCCCTATTAATAGTACGATATTCTCGGAGTCACCTAGTGCAG,8680 fluorescence intensity (a.u.)
3,CCCTTGCCACCATCCATTCCGCCGGCGCCTTATCCTACCCCGGAGTCACCTAGTGCAG,8050 fluorescence intensity (a.u.)
4,AAAAATTTTTTTTCCTTTTTTTCTCCACTTTTCCACCTCTCGGAGTCACCTAGTGCAG,8990 fluorescence intensity (a.u.)
5,GGACGGAGGGGCGGGGTGCGACGCGGACGGCGGCGGCGGGCGGAGTCACCTAGTGCAG,13500 fluorescence intensity (a.u.)
6,TGTCTCTATCGATCGATGGCCATTTTTTTCCTGCAGGCTCCGGAGTCACCTAGTGCAG,8320 fluorescence intensity (a.u.)
7,GCTTAGTTGACCAGTAGTTGTAATATCGCCGCTCGCTACTCGGAGTCACCTAGTGCAG,12100 fluorescence intensity (a.u.)
8,CGCTGCGTGCCTTCTGGGTTTCTGGACGATCGGTTTTGGTCGGAGTCACCTAGTGCAG,8470 fluorescence intensity (a.u.)
9,ACCCCGTGGCCCAACTCCTCTCCCGTCGGCCGTTGCTCGCCGGAGTCACCTAGTGCAG,8810 fluorescence intensity (a.u.)
10,TTCAGCTTCAGGGTGGGCTCAAATGTTATTGCCACTGACTCGGAGTCACCTAGTGCAG,11500 fluorescence intensity (a.u.)
11,CTTTTTTTTTTATCTATCTAGTACGACAGTAGTTGTTTTTCGGAGTCACCTAGTGCAG,8580 fluorescence intensity (a.u.)
12,CACCGCCTCTCTCTCCGACGCGGCGGCGGCGCCGGCGCCGCGGAGTCACCTAGTGCAG,8410 fluorescence intensity (a.u.)
13,TAACCCTAACTTACCCTTGTATCCTGCATCTTCCTAATCACGGAGTCACCTAGTGCAG,8350 fluorescence intensity (a.u.)
14,TCCTCACTCTGCTTCCTTGTTTTCTCTTTCTTTTTCTTTTCGGAGTCACCTAGTGCAG,13500 fluorescence intensity (a.u.)
15,CATCTTCATTCTGGTTTTTTTCTGGTCCAACCATCGGCCTCGGAGTCACCTAGTGCAG,11100 fluorescence intensity (a.u.)
16,GGGGAGTATACGGCAAGGGAGTGTGCTGTGTGTGGTCTGACGGAGTCACCTAGTGCAG,9320 fluorescence intensity (a.u.)
17,TCTTGTACTCACTTTTTTTCTTCTTCTCATTTTTTTGTATCGGAGTCACCTAGTGCAG,8650 fluorescence intensity (a.u.)
18,ATCCATCCCGCACTGTAACACTGAAATTTCGCCCAAAAAACGGAGTCACCTAGTGCAG,10200 fluorescence intensity (a.u.)
19,ACGACCACCGCTCACCGTTGTAGGGTTCAACGCCGCCGCCCGGAGTCACCTAGTGCAG,11600 fluorescence intensity (a.u.)
20,CTTCACTGCCTTCACTTCCCTGCTCAGCTCAGCAGCTCAGCGGAGTCACCTAGTGCAG,8180 fluorescence intensity (a.u.)
21,TTATATAAGTCTATTTTTTGTCCCTATATTTTTTTTATTTCGGAGTCACCTAGTGCAG,8370 fluorescence intensity (a.u.)
